No constants are given. Whether binding was seen depends on the method and setting. Binding seen in cells or lysates may run through a third protein.
Legend:
[1] = biological target: GST-AbdB-N (truncated version of AbdB-r, aa residues 89-270) (Drosophila) (UniProt P09087); test: pull-down; GST pulldown: GST-tagged AbdB proteins or GST alone as bait; bacterially expressed His-tagged Dsx proteins as input cell lysates; Western blot; three repetitions; only the target purified
[2] = biological target: GST-AbdB-NΔHD (Drosophila) (UniProt P09087); test: as above

By UniProt entry, the sequences of proteins in these tests, tags left out. Where a name states a change or a piece, a line headed by the entry shows the natural chain unless it says otherwise. Residues count along the entry.
UniProt P23023, residues 1-397: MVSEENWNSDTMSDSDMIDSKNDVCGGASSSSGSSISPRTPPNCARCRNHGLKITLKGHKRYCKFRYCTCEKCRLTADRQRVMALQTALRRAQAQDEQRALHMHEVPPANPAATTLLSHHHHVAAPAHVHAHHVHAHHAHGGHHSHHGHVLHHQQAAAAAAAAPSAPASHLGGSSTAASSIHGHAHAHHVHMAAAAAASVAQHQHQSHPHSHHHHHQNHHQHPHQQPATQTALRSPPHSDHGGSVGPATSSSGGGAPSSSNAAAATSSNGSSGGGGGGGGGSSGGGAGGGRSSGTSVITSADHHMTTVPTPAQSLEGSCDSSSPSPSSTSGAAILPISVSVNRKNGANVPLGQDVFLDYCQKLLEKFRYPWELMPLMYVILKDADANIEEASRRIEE

Row | Substance | binding [1] | binding [2]
1 | DsxΔDBD (aa residues 101-397) (from UniProt P23023) (domain or fragment) | no binding | –
2 | His-Dsx^CR (Dsx common region, aa residues 1-397) (from UniProt P23023 1-397) (domain or fragment) | – | no binding

— publication PMC6737903
